PMC11867528
Results are given in words; binding and its absence hold for the method and conditions named. In cells and extracts the contact can be indirect. Binding calls can cover weak binding; strength is not graded here.

T1: DDX52 (DExD-box helicase 52) (human (endogenous in Jurkat J6)) (UniProt Q9Y2R4)
T1 sequence: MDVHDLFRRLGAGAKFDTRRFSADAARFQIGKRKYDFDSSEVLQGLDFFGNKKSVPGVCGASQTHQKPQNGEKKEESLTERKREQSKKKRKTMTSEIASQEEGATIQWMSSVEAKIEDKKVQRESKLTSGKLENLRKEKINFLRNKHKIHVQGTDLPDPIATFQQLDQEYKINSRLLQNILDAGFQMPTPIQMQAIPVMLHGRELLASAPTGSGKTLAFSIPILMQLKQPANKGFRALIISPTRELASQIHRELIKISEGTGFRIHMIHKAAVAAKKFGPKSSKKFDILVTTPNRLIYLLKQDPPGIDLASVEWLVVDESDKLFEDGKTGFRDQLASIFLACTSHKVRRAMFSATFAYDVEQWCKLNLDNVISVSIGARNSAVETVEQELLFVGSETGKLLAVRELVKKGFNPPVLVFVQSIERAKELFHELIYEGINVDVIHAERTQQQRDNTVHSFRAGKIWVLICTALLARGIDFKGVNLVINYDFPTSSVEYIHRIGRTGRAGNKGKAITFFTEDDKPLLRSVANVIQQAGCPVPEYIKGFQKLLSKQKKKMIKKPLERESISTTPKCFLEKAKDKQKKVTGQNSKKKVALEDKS


How the values were obtained:
[1] = target: T1, DDX52 (DExD-box helicase 52) (human (endogenous in Jurkat J6)); test: co-IP; Jurkat J6 cells infected with HIV-1 NL4.3 at 0.5 MOI, harvested 48 hpi; lysates precleared with IgG, primary antibody (DDX52, Vif or A3G) overnight at 4 °C, Agarose A/G beads 4 h; washed thrice with 0.1% NP40 in 1X PBS; immunoblot
[2] = target: HIV-1 viral infectivity factor (Vif) (HIV-1 NL4.3); test: as above

Row | Molecule | binding [1] | binding [2]
1 | HIV-1 viral infectivity factor (Vif) | binds | –
2 | DDX52 (DExD-box helicase 52) (protein, UniProt Q9Y2R4 1-599) MDVHDLFRRLGAGAKFDTRRFSADAARFQIGKRKYDFDSSEVLQGLDFFGNKKSVPGVCGASQTHQKPQNGEKKEESLTERKREQSKKKRKTMTSEIASQEEGATIQWMSSVEAKIEDKKVQRESKLTSGKLENLRKEKINFLRNKHKIHVQGTDLPDPIATFQQLDQEYKINSRLLQNILDAGFQMPTPIQMQAIPVMLHGRELLASAPTGSGKTLAFSIPILMQLKQPANKGFRALIISPTRELASQIHRELIKISEGTGFRIHMIHKAAVAAKKFGPKSSKKFDILVTTPNRLIYLLKQDPPGIDLASVEWLVVDESDKLFEDGKTGFRDQLASIFLACTSHKVRRAMFSATFAYDVEQWCKLNLDNVISVSIGARNSAVETVEQELLFVGSETGKLLAVRELVKKGFNPPVLVFVQSIERAKELFHELIYEGINVDVIHAERTQQQRDNTVHSFRAGKIWVLICTALLARGIDFKGVNLVINYDFPTSSVEYIHRIGRTGRAGNKGKAITFFTEDDKPLLRSVANVIQQAGCPVPEYIKGFQKLLSKQKKKMIKKPLERESISTTPKCFLEKAKDKQKKVTGQNSKKKVALEDKS | – | binds
